For at least one compound, name, drawing or mass did not settle the structure.
Tested on: SARS-CoV-2
Type: cell-based
Settings: Vero cells

With Cc1cc(O)c2c(=O)c3c(O)cc(O)c4c5c(O)cc(O)c6c(=O)c7c(O)cc(C)c8c1c2c(c34)c(c78)c65 [Hypericin] the antiviral activity was “significant antiviral activities”.
